# According to the supplement of paper PMC10727501:
# The list shows a part of the results. Single values are uncertain here, since repeats match poorly.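 Free-swimming zebrafish larvae were scored for O-bend response probability to dark flashes (naive: first five; training: remaining flashes of four 60-flash blocks; test: later 60-flash block) and for turning toward alternating leftward/rightward LED motion (OMR). Six treated larvae were compared with sixty 0.1% DMSO controls; |SSMD|≥2 defined a hit.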
# System: Danio rerio larvae (5 dpf, TLF)
# Assay: Prob-Train (SSMD vs DMSO vehicle); higher = higher than vehicle (e.g. higher dark-flash O-bend response probability, or better optomotor performance)
# Settings: 10 µM; pre-incubation: 30-90 min
row,Compound,Prob-Train
1,CC(C)N(CCC(C(N)=O)(c1ccccc1)c1ccccn1)C(C)C.O=P(O)(O)O (stereo not drawn) [Disopyramide Phosphate],0.465
2,Cc1cc(O)ccc1Cl [Chlorocresol],-1.14
3,Cc1cccc([C@H](C)c2cnc[nH]2)c1C.Cl [Dexmedetomidine HCl (Precedex)],-3.07
4,C=C1C[C@@H]2[C@@H](CC[C@@]3(C)C(=O)CC[C@@H]23)[C@@]2(C)C=CC(=O)C=C12 [Exemestane],-1
5,C[N+]1(C)[C@@H]2C[C@H](OC(=O)[C@H](CO)c3ccccc3)C[C@H]1[C@@H]1O[C@@H]12.[Br-] [Methscopolamine],-0.396
6,c1cc2c(cc1[C@H]1OC[C@H]3[C@H]1CO[C@@H]3c1ccc3c(c1)OCO3)OCO2 [Sesamin],-2.93
7,O=c1[nH]c2ccccc2n1CCCN1CCC(n2c(=O)[nH]c3cc(Cl)ccc32)CC1 [Domperidone],0.15
8,CCNCC.O=S(=O)(O)c1cc(O)ccc1O [Ethamsylate],-0.496
9,C#C[C@@]1(O)CC[C@H]2[C@@H]3CCC4=CC(=O)CC[C@]4(C)[C@@H]3CC[C@@]21C [Ethisterone],-0.0773
10,CN1C2CCC1CC(OC(=O)[C@H](CO)c1ccccc1)C2 (stereo partly drawn) [Hyoscyamine],-1.06
11,O=C(O)CNC(=O)c1c(O)c2ccccc2n(Cc2ccccc2)c1=O,-0.376
12,C[N+](C)(C)CCCCCCCCCC[N+](C)(C)C.[Br-].[Br-] [Decamethonium Bromide],-0.647
13,CC[C@@H](C(N)=O)N1CCCC1=O [Levetiracetam],-0.347
14,NCC1(CC(=O)O)CCCCC1 [Gabapentin (Neurontin)],0.0271
15,Cc1cc(C(=O)CN2CCCC2)c(C)n1-c1ccc(F)cc1,1.07
16,C[C@H]1CCC/C=C/[C@@H]2C[C@H](O)C[C@H]2[C@H](O)/C=C/C(=O)O1 [Brefeldin A],-0.281
17,CN(C)C(=O)C(CCN1CCC(O)(c2ccc(Cl)cc2)CC1)(c1ccccc1)c1ccccc1.Cl [Loperamide HCl],-1
18,CN1C(=O)CCS(=O)(=O)C1c1ccc(Cl)cc1 (stereo not drawn) [Chlormezanone],0.636
19,C[C@]12CCC(=O)C=C1C=C[C@@H]1[C@@H]2CC[C@@]2(C)[C@H]1CC[C@@]2(O)CCC(=O)O.[K] [Potassium Canrenoate],0.308
20,C[C@]12CC[C@H](O)C[C@@H]1CC[C@@H]1[C@H]2CC[C@]2(C)C(=O)CC[C@@H]12 [Epiandrosterone],-2.74
21,CCCC[N+]1(C)[C@@H]2C[C@@H](OC(=O)[C@@H](CO)c3ccccc3)C[C@H]1[C@@H]1O[C@@H]12.[Br-] (stereo partly drawn) [Butylscopolamine Bromide],0.109
22,CN(C)Cc1c[nH]c2ccccc12 [Gramine],0.00647
23,NC[C@H](CC(=O)O)c1ccc(Cl)cc1 [(R)-baclofen],-0.00727
24,CN1CCc2cc3c(cc2[C@H]1[C@@H]1OC(=O)c2c1ccc1c2OCO1)OCO3 [(+)-Bicuculline],-0.203
25,CCCN1CCO[C@@H]2c3cc(O)ccc3OC[C@@H]21,-0.735
26,CCC1(C)CC(=O)NC(=O)C1 [Bemegride],0.152
27,CN(C)CCc1ccc(O)cc1 [Hordenine],-0.233
28,CC(C)(C)[C@@]1(O)C[C@@H]2OC(=O)C[C@@]23C(=O)O[C@H]2OC(=O)[C@H](O)C213 (stereo partly drawn) [Bilobalide],-0.229

# Shown as tab-separated lines: entries from further up
row	Compound	Prob-Train
1	CC(C)N(CCC(C(N)=O)(c1ccccc1)c1ccccn1)C(C)C.O=P(O)(O)O (stereo not drawn) [Disopyramide Phosphate]	0.465
2	Cc1cc(O)ccc1Cl [Chlorocresol]	-1.14
